Laboratory results: publication PMC4441479
Results are given in words; binding and its absence hold for the method and conditions named. Binding seen in cells or lysates may run through a third protein. A yes stands for co-enrichment or nearness to the bait. Other partners may have been found.

Sequences of proteins named here, by UniProt entry; tags and fusion partners are left off.
UniProt Q7Z2W4: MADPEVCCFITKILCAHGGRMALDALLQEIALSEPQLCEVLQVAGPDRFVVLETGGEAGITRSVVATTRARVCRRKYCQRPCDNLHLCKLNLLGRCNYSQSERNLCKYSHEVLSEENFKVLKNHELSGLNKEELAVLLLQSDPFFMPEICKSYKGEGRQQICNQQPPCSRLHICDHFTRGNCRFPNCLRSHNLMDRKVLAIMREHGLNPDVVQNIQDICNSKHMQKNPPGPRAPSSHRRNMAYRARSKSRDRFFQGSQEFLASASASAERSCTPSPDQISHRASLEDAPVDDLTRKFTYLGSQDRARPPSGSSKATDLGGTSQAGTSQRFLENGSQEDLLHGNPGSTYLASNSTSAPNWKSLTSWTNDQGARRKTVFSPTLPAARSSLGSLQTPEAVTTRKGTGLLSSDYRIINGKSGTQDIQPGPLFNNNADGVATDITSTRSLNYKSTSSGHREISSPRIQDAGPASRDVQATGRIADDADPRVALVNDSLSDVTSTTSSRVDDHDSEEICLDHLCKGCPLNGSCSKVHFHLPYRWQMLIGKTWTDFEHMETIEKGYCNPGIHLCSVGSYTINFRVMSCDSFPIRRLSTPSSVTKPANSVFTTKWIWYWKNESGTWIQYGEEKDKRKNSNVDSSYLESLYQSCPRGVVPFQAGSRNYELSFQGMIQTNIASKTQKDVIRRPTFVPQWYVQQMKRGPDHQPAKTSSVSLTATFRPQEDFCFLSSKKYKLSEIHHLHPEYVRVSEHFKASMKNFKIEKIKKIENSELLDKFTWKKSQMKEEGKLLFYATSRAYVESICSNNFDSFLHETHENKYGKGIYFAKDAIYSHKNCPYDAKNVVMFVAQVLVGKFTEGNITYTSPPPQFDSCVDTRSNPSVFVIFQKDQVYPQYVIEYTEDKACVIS

Target: ZAP-L-FL (FLAG-tagged ZAP-L) (human) (UniProt Q7Z2W4)
Assay: affinity purification with mass spectrometry; ZAP-L-FL or empty vector transfected in 293T; IP with α-FLAG agarose from whole cell lysates (sonication) in the presence or absence of 30 μg/ml RNase; tandem MS; hits: 3 or more peptides, two replicate IPs, not in vector control

Binder	binding
YTH domain containing 2 (protein, UniProt Q9H6S0 1-1430) MSRPSSVSPRQPAPGGGGGGGPSPCGPGGGGRAKGLKDIRIDEEVKIAVNIALERFRYGDQREMEFPSSLTSTERAFIHRLSQSLGLVSKSKGKGANRYLTVKKKDGSETAHAMMTCNLTHNTKHAVRSLIQRFPVTNKERTELLPKTERGNVFAVEAENREMSKTSGRLNNGIPQIPVKRGESEFDSFRQSLPVFEKQEEIVKIIKENKVVLIVGETGSGKTTQIPQFLLDDCFKNGIPCRIFCTQPRRLAAIAVAERVAAERRERIGQTIGYQIRLESRVSPKTLLTFCTNGVLLRTLMAGDSTLSTVTHVIVDEVHERDRFSDFLLTKLRDLLQKHPTLKLILSSAALDVNLFIRYFGSCPVIYIQGRPFEVKEMFLEDILRTTGYTNKEMLKYKKEKQQEEKQQTTLTEWYSAQENSFKPESQRQRTVLNVTDEYDLLDDGGDAVFSQLTEKDVNCLEPWLIKEMDACLSDIWLHKDIDAFAQVFHLILTENVSVDYRHSETSATALMVAAGRGFASQVEQLISMGANVHSKASNGWMALDWAKHFGQTEIVDLLESYSATLEFGNLDESSLVQTNGSDLSAEDRELLKAYHHSFDDEKVDLDLIMHLLYNICHSCDAGAVLIFLPGYDEIVGLRDRILFDDKRFADSTHRYQVFMLHSNMQTSDQKKVLKNPPAGVRKIILSTNIAETSITVNDVVFVIDSGKVKEKSFDALNFVTMLKMVWISKASAIQRKGRAGRCRPGICFRLFSRLRFQNMLEFQTPELLRMPLQELCLHTKLLAPVNCPIADFLMKAPEPPPALIVRNAVQMLKTIDAMDTWEDLTELGYHLADLPVEPHLGKMVLCAVVLKCLDPILTIACTLAYRDPFVLPTQASQKRAAMLCRKRFTAGAFSDHMALLRAFQAWQKARSDGWERAFCEKNFLSQATMEIIIGMRTQLLGQLRASGFVRARGGGDIRDVNTNSENWAVVKAALVAGMYPNLVHVDRENLVLTGPKEKKVRFHPASVLSQPQYKKIPPANGQAAAIKALPTDWLIYDEMTRAHRIANIRCCSAVTPVTILVFCGPARLASNALQEPSSFRVDGIPNDSSDSEMEDKTTANLAALKLDEWLHFTLEPEAASLLLQLRQKWHSLFLRRMRAPSKPWSQVDEATIRAIIAVLSTEEQSAGLQQPSGIGQRPRPMSSEELPLASSWRSNNSRKSSADTEFSDECTTAERVLMKSPSPALHPPQKYKDRGILHPKRGTEDRSDQSSLKSTDSSSYPSPCASPSPPSSGKGSKSPSPRPNMPVRYFIMKSSNLRNLEISQQKGIWSTTPSNERKLNRAFWESSIVYLVFSVQGSGHFQGFSRMSSEIGREKSQDWGSAGLGGVFKVEWIRKESLPFQFAHHLLNPWNDNKKVQISRDGQELEPLVGEQLLQLWERLPLGEKNTTD	binds
GTPase activating protein (SH3 domain) binding protein 2 (protein, UniProt Q9UN86-2 1-449) MVMEKPSPLLVGREFVRQYYTLLNKAPEYLHRFYGRNSSYVHGGVDASGKPQEAVYGQNDIHHKVLSLNFSECHTKIRHVDAHATLSDGVVVQVMGLLSNSGQPERKFMQTFVLAPEGSVPNKFYVHNDMFRYEDEVFGDSEPELDEESEDEVEEEQEERQPSPEPVQENANSGYYEAHPVTNGIEEPLEESSHEPEPEPESETKTEELKPQVEEKNLEELEEKSTTPPPAEPVSLPQEPPKPRVEAKPEVQSQPPRVREQRPRERPGFPPRGPRPGRGDMEQNDSDNRRIIRYPDSHQLFVGNLPHDIDENELKEFFMSFGNVVELRINTKGVGGKLPNFGFVVFDDSEPVQRILIAKPIMFRGEVRLNVEEKKTRAARERETRGGGDDRRDIRRNDRGPGGPRGIVGGGMMRDRDGRGPPPRGGMAQKLGSGRGTGQMEGRFTGQRR	binds
5'-3' exoribonuclease 2 (protein, UniProt Q9H0D6-1 1-950) MGVPAFFRWLSRKYPSIIVNCVEEKPKECNGVKIPVDASKPNPNDVEFDNLYLDMNGIIHPCTHPEDKPAPKNEDEMMVAIFEYIDRLFSIVRPRRLLYMAIDGVAPRAKMNQQRSRRFRASKEGMEAAVEKQRVREEILAKGGFLPPEEIKERFDSNCITPGTEFMDNLAKCLRYYIADRLNNDPGWKNLTVILSDASAPGEGEHKIMDYIRRQRAQPNHDPNTHHCLCGADADLIMLGLATHEPNFTIIREEFKPNKPKPCGLCNQFGHEVKDCEGLPREKKGKHDELADSLPCAEGEFIFLRLNVLREYLERELTMASLPFTFDVERSIDDWVFMCFFVGNDFLPHLPSLEIRENAIDRLVNIYKNVVHKTGGYLTESGYVNLQRVQMIMLAVGEVEDSIFKKRKDDEDSFRRRQKEKRKRMKRDQPAFTPSGILTPHALGSRNSPGSQVASNPRQAAYEMRMQNNSSPSISPNTSFTSDGSPSPLGGIKRKAEDSDSEPEPEDNVRLWEAGWKQRYYKNKFDVDAADEKFRRKVVQSYVEGLCWVLRYYYQGCASWKWYYPFHYAPFASDFEGIADMPSDFEKGTKPFKPLEQLMGVFPAASGNFLPPSWRKLMSDPDSSIIDFYPEDFAIDLNGKKYAWQGVALLPFVDERRLRAALEEVYPDLTPEETRRNSLGGDVLFVGKHHPLHDFILELYQTGSTEPVEVPPELCHGIQGKFSLDEEAILPDQIVCSPVPMLRDLTQNTVVSINFKDPQFAEDYIFKAVMLPGARKPAAVLKPSDWEKSSNGRQWKPQLGFNRDRRPVHLDQAAFRTLGHVMPRGSGTGIYSNAAPPPVTYQGNLYRPLLRGQAQIPKLMSNMRPQDSWRGPPPLFQQQRFDRGVGAEPLLPWNRMLQTQNAAFQPNQYQMLAGPGGYPPRRDDRGGRQGYPREGRKYPLPPPSGRYNWN	binds
Zinc finger protein 326, transcript variant 1 (protein, UniProt Q5BKZ1-1 1-582) MDFEDDYTHSACRNTYQGFNGMDRDYGPGSYGGMDRDYGHGSYGGQRSMDSYLNQSYGMDNHSGGGGGSRFGPYESYDSRSSLGGRDLYRSGYGFNEPEQSRFGGSYGGRFESSYRNSLDSFGGRNQGGSSWEAPYSRSKLRPGFMEDRGRENYSSYSSFSSPHMKPAPVGSRGRGTPAYPESTFGSRNYDAFGGPSTGRGRGRGHMGDFGSIHRPGIVVDYQNKSTNVTVAAARGIKRKMMQPFNKPSGTFIKKPKLAKPMEKISLSKSPTKTDPKNEEEEKRRIEARREKQRRRREKNSEKYGDGYRMAFTCSFCKFRTFEEKDIELHLESSSHQETLDHIQKQTKFDKVVMEFLHECMVNKFKKTSIRKQQTNNQTEVVKIIEKDVMEGVTVDDHMMKVETVHCSACSVYIPALHSSVQQHLKSPDHIKGKQAYKEQIKRESVLTATSILNNPIVKARYERFVKGENPFEIQDHSQDQQIEGDEEDEEKIDEPIEEEEDEDEEEEAEEVGEVEEVEEVEEVREGGIEGEGNIQGVGEGGEVGVVGEVEGVGEVEEVEELEEETAKEEPADFPVEQPEEN	binds
Endoplasmic reticulum protein 44 (protein, UniProt Q9BS26 30-406) EITSLDTENIDEILNNADVALVNFYADWCRFSQMLHPIFEEASDVIKEEFPNENQVVFARVDCDQHSDIAQRYRISKYPTLKLFRNGMMMKREYRGQRSVKALADYIRQQKSDPIQEIRDLAEITTLDRSKRNIIGYFEQKDSDNYRVFERVANILHDDCAFLSAFGDVSKPERYSGDNIIYKPPGHSAPDMVYLGAMTNFDVTYNWIQDKCVPLVREITFENGEELTEEGLPFLILFHMKEDTESLEIFQNEVARQLISEKGTINFLHADCDKFRHPLLHIQKTPADCPVIAIDSFRHMYVFGDFKDVLIPGKLKQFVFDLHSGKLHREFHHGPDPTDTAPGEQAQDVASSPPESSFQKLAPSEYRYTLLRDRDEL	binds
GrpE-like 1, mitochondrial (E. coli) (protein, UniProt Q9HAV7 28-217) CTATKQKNSGQNLEEDMGQSEQKADPPATEKTLLEEKVKLEEQLKETVEKYKRALADTENLRQRSQKLVEEAKLYGIQAFCKDLLEVADVLEKATQCVPKEEIKDDNPHLKNLYEGLVMTEVQIQKVFTKHGLLKLNPVGAKFDPYEHEALFHTPVEGKEPGTVALVSKVGYKLHGRTLRPALVGVVKEA	binds
Guanine nucleotide binding protein-like 3 (nucleolar) /nucleostemin (protein, UniProt Q9BVP2-1 1-549) MKRPKLKKASKRMTCHKRYKIQKKVREHHRKLRKEAKKRGHKKPRKDPGVPNSAPFKEALLREAELRKQRLEELKQQQKLDRQKELEKKRKLETNPDIKPSNVEPMEKEFGLCKTENKAKSGKQNSKKLYCQELKKVIEASDVVLEVLDARDPLGCRCPQVEEAIVQSGQKKLVLILNKSDLVPKENLESWLNYLKKELPTVVFRASTKPKDKGKITKRVKAKKNAAPFRSEVCFGKEGLWKLLGGFQETCSKAIRVGVIGFPNVGKSSIINSLKQEQMCNVGVSMGLTRSMQVVPLDKQITIIDSPSFIVSPLNSSSALALRSPASIEVVKPMEAASAILSQADARQVVLKYTVPGYRNSLEFFTVLAQRRGMHQKGGIPNVEGAAKLLWSEWTGASLAYYCHPPTSWTPPPYFNESIVVDMKSGFNLEELEKNNAQSIRAIKGPHLANSILFQSSGLTNGIIEEKDIHEELPKRKERKQEEREDDKDSDQETVDEEVDENSSGMFAAEETGEALSEETTAGEQSTRSFILDKIIEEDDAYDFSTDYV	binds
NOP2 nucleolar protein (protein, UniProt P46087-1 1-812) MGRKLDPTKEKRGPGRKARKQKGAETELVRFLPAVSDENSKRLSSRARKRAAKRRLGSVEAPKTNKSPEAKPLPGKLPKGISAGAVQTAGKKGPQSLFNAPRGKKRPAPGSDEEEEEEDSEEDGMVNHGDLWGSEDDADTVDDYGADSNSEDEEEGEALLPIERAARKQKAREAAAGIQWSEEETEDEEEEKEVTPESGPPKVEEADGGLQINVDEEPFVLPPAGEMEQDAQAPDLQRVHKRIQDIVGILRDFGAQREEGRSRSEYLNRLKKDLAIYYSYGDFLLGKLMDLFPLSELVEFLEANEVPRPVTLRTNTLKTRRRDLAQALINRGVNLDPLGKWSKTGLVVYDSSVPIGATPEYLAGHYMLQGASSMLPVMALAPQEHERILDMCCAPGGKTSYMAQLMKNTGVILANDANAERLKSVVGNLHRLGVTNTIISHYDGRQFPKVVGGFDRVLLDAPCSGTGVISKDPAVKTNKDEKDILRCAHLQKELLLSAIDSVNATSKTGGYLVYCTCSITVEENEWVVDYALKKRNVRLVPTGLDFGQEGFTRFRERRFHPSLRSTRRFYPHTHNMDGFFIAKFKKFSNSIPQSQTGNSETATPTNVDLPQVIPKSENSSQPAKKAKGAAKTKQQLQKQQHPKKASFQKLNGISKGADSELSTVPSVTKTQASSSFQDSSQPAGKAEGIREPKVTGKLKQRSPKLQSSKKVAFLRQNAPPKGTDTQTPAVLSPSKTQATLKPKDHHQPLGRAKGVEKQQLPEQPFEKAAFQKQNDTPKGPQPPTVSPIRSSRPPPAKRKKSQSRGNSQLLLS	binds
Ribonuclease/angiogenin inhibitor 1 (protein, UniProt P13489 1-461) MSLDIQSLDIQCEELSDARWAELLPLLQQCQVVRLDDCGLTEARCKDISSALRVNPALAELNLRSNELGDVGVHCVLQGLQTPSCKIQKLSLQNCCLTGAGCGVLSSTLRTLPTLQELHLSDNLLGDAGLQLLCEGLLDPQCRLEKLQLEYCSLSAASCEPLASVLRAKPDFKELTVSNNDINEAGVRVLCQGLKDSPCQLEALKLESCGVTSDNCRDLCGIVASKASLRELALGSNKLGDVGMAELCPGLLHPSSRLRTLWIWECGITAKGCGDLCRVLRAKESLKELSLAGNELGDEGARLLCETLLEPGCQLESLWVKSCSFTAACCSHFSSVLAQNRFLLELQISNNRLEDAGVRELCQGLGQPGSVLRVLWLADCDVSDSSCSSLAATLLANHSLRELDLSNNCLGDAGILQLVESVRQPGCLLEQLVLYDIYWSEEMEDRLQALEKDKPSLRVIS	binds
